Laboratory results from patent publication US11708283B2, “Metal-chelating compositions and their use in methods of removing or inhibiting barium scale” (CORNELL UNIVERSITY, priority 2018, dated 2023).
For at least one compound, name, drawing or mass did not settle the structure.

Assay: La^3+ transmetalation challenge of Ba-L complexes (UV-vis)
Type: physicochemical
Details: 1000 equiv of La^3+, RT, pH 7.3, UV-vis

## O=C([O-])c1cccc(CN2CCOCCOCCN(Cc3cccc(C(=O)[O-])n3)CCOCCOCC2)n1.[Ba+2] [Ba-macropa]
  half-life (t1/2) of substitution of Ba^2+ with La^3+: 5.45 ± 0.20 min
